Data on five molecules can be found in PMC9038911.

The chains behind the UniProt entries cited, without tags or fusion partners. Residues count along the entry.
UniProt Q9M5J9, residues 22-330: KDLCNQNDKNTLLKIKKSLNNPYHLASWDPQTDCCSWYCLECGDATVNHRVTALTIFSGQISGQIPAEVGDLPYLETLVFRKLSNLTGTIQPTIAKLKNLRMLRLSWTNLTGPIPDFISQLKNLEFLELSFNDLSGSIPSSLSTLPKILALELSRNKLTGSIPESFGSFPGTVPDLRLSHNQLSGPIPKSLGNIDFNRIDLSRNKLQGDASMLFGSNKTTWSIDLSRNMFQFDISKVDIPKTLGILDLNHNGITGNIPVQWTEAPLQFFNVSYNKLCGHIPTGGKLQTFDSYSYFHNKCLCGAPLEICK
UniProt A0A1D9QD76, residues 22-105: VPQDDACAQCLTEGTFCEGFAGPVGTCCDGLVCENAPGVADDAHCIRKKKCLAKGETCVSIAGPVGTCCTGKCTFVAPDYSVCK

For assay [1], the target named is SsPINE1-GFP (expressed in N. benthamiana) (Sclerotinia sclerotiorum). The experiment in a line: co-IP; GFP- and 3xFlag-tagged constructs co-infiltrated in N. benthamiana; leaf lysate 48 h after infiltration; anti-Flag agarose (Flag IP) or anti-GFP agarose (GFP IP); Western blot with anti-GFP or anti-Flag. For orientation: Immunoblotting shows a protein as a band on a membrane.

For assay [2], the target named is AtPGIP1-3xFlag (Arabidopsis thaliana) (UniProt Q9M5J9). Put plainly: co-IP; modified co-IP: purified competing protein from yeast (0, 100 ng and 10 μg) added to leaf lysate of co-infiltrated leaves, 30 min, then Flag IP and anti-GFP blot; pair co-expressed in the leaves.
For assay [3] the target is unchanged. The experiment in a line: co-IP; modified co-IP: the three constructs SsPINE1-GFP, SsPG1-GFP and AtPGIP1-3xFlag co-infiltrated together into tobacco leaves; Flag IP, anti-GFP blot.
Assay [4] shares this target. Put plainly: co-IP; GFP- and 3xFlag-tagged constructs co-infiltrated in N. benthamiana; leaf lysate 48 h after infiltration; anti-Flag agarose (Flag IP) or anti-GFP agarose (GFP IP); Western blot with anti-GFP or anti-Flag.
Assay [5] concerns the target AtPGIP1-nRFP (Arabidopsis thaliana) (UniProt Q9M5J9). The experiment in a line: split reporter; BiFC with nRFP and cRFP fusions co-agroinfiltrated into N. benthamiana leaves; confocal microscopy 48 h after agroinfiltration.
The target of assay [6] is AtPGIP1-3xFlag (Arabidopsis thaliana) (UniProt Q9M5J9). Put plainly: co-IP; modified co-IP: purified competing protein from yeast (0, 100 ng and 10 μg) added to leaf lysate of co-infiltrated leaves, 30 min, then Flag IP and anti-GFP blot; pair of the added purified protein with AtPGIP1-3xFlag of the lysate; only the binder purified.
Assay [7] addresses signal peptide-truncated SsPINE1 (SsPINE1^ΔSP), yeast two-hybrid fusion (Sclerotinia sclerotiorum). The experiment in a line: two-hybrid; targeted assay, GAL4-based Matchmaker Gold; pGADT7 and pGBKT7 constructs co-transformed in pairs into yeast strain Gold; SD/-His,-Ade,-Leu,-Trp with aureobasidin A, X-α-gal staining; SsPINE1 and AtPGIP1 each as bait and as prey.

No constants are given. Whether binding was seen depends on the method and setting. For some of these results: In cells and extracts the contact can be indirect. Some entries that bind do so weakly or less than the wild type. For some of these results: Tags and fused reporters may be left off the sequences shown.

With “AtPGIP1-3xFlag (from UniProt Q9M5J9 22-330)”, the binding entry in assay [1] is listed as “binds”.

Take “SsPINE1-GFP (expressed in N. benthamiana) (from UniProt A0A1D9QD76 22-105)”: the binding entry in assay [2], in assay [3] and in assay [4] was “binds” throughout.

Take “SsPINE1-cRFP (from UniProt A0A1D9QD76 22-105)”: the binding entry in assay [5] is “binds”.

On to “purified SsPINE1-GFP-His fusion protein from yeast (from UniProt A0A1D9QD76 22-105) (domain or fragment)”, for which, in assay [6], the binding result is listed as “binds”.

B1: AtPGIP2, yeast two-hybrid fusion (protein, UniProt Q9M5J8 1-330)
chain: MDKTMTLFLLLSTLLLTTSLAKDLCHKDDKTTLLKIKKSLNNPYHLASWDPKTDCCSWYCLECGDATVNHRVTSLIIQDGEISGQIPPEVGDLPYLTSLIFRKLTNLTGHIQPTIAKLKNLTFLRLSWTNLTGPVPEFLSQLKNLEYIDLSFNDLSGSIPSSLSSLRKLEYLELSRNKLTGPIPESFGTFSGKVPSLFLSHNQLSGTIPKSLGNPDFYRIDLSRNKLQGDASILFGAKKTTWIVDISRNMFQFDLSKVKLAKTLNNLDMNHNGITGSIPAEWSKAYFQLLNVSYNRLCGRIPKGEYIQRFDSYSFFHNKCLCGAPLPSCK
As to B1, the binding entry in assay [7] is “no binding”.
